From ChEMBL document CHEMBL4428037 (J Med Chem, 2016)
pIC50: −log10 of the molar value.

Tested on: PC-3
Assay: Growth inhibition of human PC3 cells incubated for 72 hrs by MTT assay
Type: functional, cell-based
Conditions: PC-3, 72 h

COc1cc2c(c(OC)c1OC)-c1ccc(OC)c(=O)cc1[C@@H](NC(C)=O)CC2 [COLCHICINE]
pIC50: 7.82
